Source: patent publication US20250326856A1
Results are given in words; binding and its absence hold for the method and conditions named. Some binding calls cover weakened binding; strength is not graded here.

Sequences of proteins named here, by UniProt entry; tags and fusion partners are left off. A change or cut given only in a name is not applied to a line headed by its entry.
UniProt P08575: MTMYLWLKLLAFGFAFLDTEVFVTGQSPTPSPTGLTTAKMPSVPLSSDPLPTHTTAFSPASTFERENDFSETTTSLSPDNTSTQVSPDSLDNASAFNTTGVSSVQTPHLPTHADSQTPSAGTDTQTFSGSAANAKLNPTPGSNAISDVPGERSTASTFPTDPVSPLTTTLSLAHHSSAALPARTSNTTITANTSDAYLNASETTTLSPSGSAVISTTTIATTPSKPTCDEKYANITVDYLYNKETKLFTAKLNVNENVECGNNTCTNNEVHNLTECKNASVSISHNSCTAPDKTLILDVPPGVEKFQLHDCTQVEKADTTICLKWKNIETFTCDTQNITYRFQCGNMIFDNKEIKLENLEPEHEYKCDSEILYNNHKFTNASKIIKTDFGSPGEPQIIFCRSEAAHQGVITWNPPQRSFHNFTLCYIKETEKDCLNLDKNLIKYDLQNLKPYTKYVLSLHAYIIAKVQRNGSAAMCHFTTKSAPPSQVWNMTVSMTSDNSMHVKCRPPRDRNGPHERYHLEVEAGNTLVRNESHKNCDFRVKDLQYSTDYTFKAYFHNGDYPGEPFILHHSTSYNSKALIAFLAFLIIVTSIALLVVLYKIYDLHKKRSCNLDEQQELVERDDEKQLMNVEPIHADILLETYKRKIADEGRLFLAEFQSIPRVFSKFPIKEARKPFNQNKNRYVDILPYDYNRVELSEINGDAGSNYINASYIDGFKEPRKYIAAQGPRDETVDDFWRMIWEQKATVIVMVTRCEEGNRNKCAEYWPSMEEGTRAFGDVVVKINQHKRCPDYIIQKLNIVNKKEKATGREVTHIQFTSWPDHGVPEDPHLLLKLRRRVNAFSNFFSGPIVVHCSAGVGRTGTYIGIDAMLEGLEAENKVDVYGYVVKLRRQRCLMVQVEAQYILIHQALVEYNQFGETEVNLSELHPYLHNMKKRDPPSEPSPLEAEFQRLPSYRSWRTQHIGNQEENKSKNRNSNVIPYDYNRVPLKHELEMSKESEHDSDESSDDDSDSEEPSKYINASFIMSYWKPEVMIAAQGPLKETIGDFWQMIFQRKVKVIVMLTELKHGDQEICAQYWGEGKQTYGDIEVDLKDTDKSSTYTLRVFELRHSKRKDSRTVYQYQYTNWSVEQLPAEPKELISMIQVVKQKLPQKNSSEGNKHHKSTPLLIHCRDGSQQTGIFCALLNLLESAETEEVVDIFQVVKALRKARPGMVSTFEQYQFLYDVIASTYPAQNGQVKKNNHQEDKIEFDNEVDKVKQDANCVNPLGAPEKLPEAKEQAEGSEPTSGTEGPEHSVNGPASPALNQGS

Target: CD45 (PTPRC) on human lymphoid CD45-positive RS4;11 cells (human) (UniProt P08575)
Assay: flow cytometry, RS4;11 CD45+ vs CD45 knockout cells, 5 µg/mL antibody, PE goat anti-human IgG

B1: chimeric BC8 (murine BC8 variable regions, human constant regions) (antibody, V domains shown)
VH: EVKLLESGGGLVQPGGSLKLSCAASGFDFSRYWMSWVRQAPGKGLEWIGEINPTSSTINFTPSLKDKVFISRDNAKNTLYLQMSKVRSEDTALYYCARGNYYRYGDAMDYWGQGTSVTVSS
VL: DIALTQSPASLAVSLGQRATISCRASKSVSTSGYSYLHWYQQKPGQPPKLLIYLASNLESGVPARFSGSGSGTDFTLNIHPVEEEDAATYYCQHSRELPFTFGSGTKLEIK
- binding: binds
